Results as given in the supplement of paper PMC3334620.
Over roughly 33,000 sequences, “E-score (-0.5 to 0.5)” has its median near -0.0034; the highest 2% begin near 0.25. The list shows a part of the results.

What follows are sequences tested against T1, Yap3 (UniProt P38749) (assay: PBM E-score (8-mer binding enrichment) (E-score (-0.5 to 0.5)); higher = stronger / more preferred TF binding). Settings: protein concentration: 100 nM; construct: GST-full length.
T1 sequence: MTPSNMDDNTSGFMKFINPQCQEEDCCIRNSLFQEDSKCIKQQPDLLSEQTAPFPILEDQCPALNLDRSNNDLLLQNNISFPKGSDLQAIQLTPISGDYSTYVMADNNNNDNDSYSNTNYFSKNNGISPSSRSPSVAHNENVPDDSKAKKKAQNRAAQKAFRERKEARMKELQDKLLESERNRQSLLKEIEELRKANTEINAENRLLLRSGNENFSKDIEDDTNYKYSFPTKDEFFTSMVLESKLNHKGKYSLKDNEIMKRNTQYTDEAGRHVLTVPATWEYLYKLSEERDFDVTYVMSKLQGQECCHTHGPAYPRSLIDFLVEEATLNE
Procedure: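 Universal 'all 10-mer' protein binding microarrays (Agilent AMADID 015681) probed with GST-tagged S. cerevisiae TFs (full-length or DBD) made by in vitro transcription/translation (PURExpress), about 100-200 nM. Bound TF was detected with fluorescent anti-GST. Each ungapped 8-mer (which stands for itself and its reverse complement) is scored by the PBM enrichment score (E-score), a modified Wilcoxon-Mann-Whitney statistic from -0.5 to +0.5, computed with the Universal PBM Analysis Suite. Scale: above 0.35 generally sequence-specific binding.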

Row | Sequence | PBM E-score
1 | AGACTGTG | -0.0423
2 | GTACGGAA | 0.18
3 | GTATAGCA | 0.135
4 | CCTTCCAA | -0.0151
5 | TACACCTA | 0.243
6 | CATAGGCG | -0.0618
7 | ACGGGCAT | -0.0136
8 | GCTAGAGC | -0.237
9 | GCAGGGAC | -0.156
10 | GAACGCTA | -0.0749
11 | GGGCAAAA | 0.0668
12 | CCCTTTTC | -0.00476
13 | AGAATCCC | 0.063
14 | CTCGGGGC | -0.202
15 | AAATCATT | 0.0767
16 | CTACGGTC | -0.0956
17 | CTCCATTC | -0.0533
18 | CACAGTAC | 0.0246
19 | CACAACAC | 0.173
20 | CAGTCCGG | -0.284
21 | ATTGCTCC | -0.0573
22 | CCTGACCG | -0.211
23 | CGTTATCC | 0.0546
24 | AACAGACC | -0.00049
25 | CAACTCTG | -0.0809

Row | Sequence | PBM E-score
26 | CTCGGATC | -0.0202
27 | AAAGATTT | 0.0823
28 | CATTCGCC | -0.146
29 | AGGCTGTG | -0.00176
30 | ACCTAGCC | -0.112
31 | ATGCCATC | 0.0232
32 | AACCCGGA | -0.243
33 | CCGGTGCC | -0.337
34 | GCATATAC | 0.0525
35 | ACGCGGTA | 0.00829
36 | GTTCAGTA | 0.0681
37 | AGAGTCAC | -0.069
38 | ACTAGTAA | 0.115
39 | CACTTGGA | 0.0141
40 | CAGGTAGG | -0.124
41 | GAACAGCC | -0.155
42 | ACATTCGG | 0.0226
43 | AGATACTA | -0.0778
44 | AGGCCCTA | -0.174
45 | GAGCAAAA | -0.0244
46 | ATCCAGGA | 0.0537
47 | CACTACGC | -0.216
48 | TGACTACA | -0.0249
49 | AACCATAC | 0.0832
50 | CAACTGCG | -0.123

Row | Sequence | PBM E-score
51 | CTCCCTCC | -0.258
52 | TCTAGGAA | -0.0119
53 | GAGAAAGA | 0.0339
54 | GACTGAAA | 0.0541
55 | AGCCATCA | 0.0981
56 | AATATTAT | 0.333
57 | CGTTAACC | 0.0991
58 | CGAAAACC | 0.0919
59 | ATAGCTGC | 0.0762
60 | GCGGGCAA | -0.0516
61 | AATTCGCC | 0.125
62 | CTACGTGA | -0.079
63 | CCCGAGAG | -0.19
64 | CCCAACTA | 0.188
65 | CTAAGTCA | 0.024
66 | GGTTGGCA | -0.11
67 | CATTCGTC | -0.00717
68 | AAAGAGGG | -0.177
69 | CTGCCATA | 0.131
70 | AGCGCTAC | -0.131
71 | ATTTGCGC | 0.0239
72 | GATCCCAC | 0.147
73 | AGTGTTAT | 0.189
74 | AATCTTAG | 0.165
75 | TGGATCCA | 0.153

Row | Sequence | PBM E-score
76 | GGCGAAAC | 0.0862
77 | GTAGATGA | 0.16
78 | ACTACGTA | 0.13
79 | CCCATCTA | -0.0177
80 | ACACCATA | 0.164
81 | ATGATCCA | -0.141
82 | AATCTAAC | 0.0837
83 | TAACCATA | 0.13
84 | AGCATATC | -0.0175
85 | GCGTTTGA | -0.0237
86 | AATATTGT | 0.254
87 | ATACCGCA | 0.0107
88 | CTGGTCCA | 0.0655
89 | CCTGTGCC | -0.202
90 | GATAGCGA | 0.144
91 | AGAAGAAG | -0.148
92 | CTCAGGCA | 0.0487
93 | CCAGCTAG | -0.148
94 | ATACGCGA | 0.117
95 | ATACAGGG | 0.14
96 | CTCTACTA | 0.166
97 | CAGTCTCG | -0.163
98 | CCGGATCA | 0.0226
99 | GTTGGCGA | -0.04
100 | AATACGAT | 0.187

Row | Sequence | PBM E-score
101 | CCGATGCA | -0.102
102 | GTACTAGA | 0.149
103 | AAGCCTGA | -0.217
104 | ACATCGGG | -0.00035
105 | GAACCTAC | 0.00034
106 | ACTTAGTA | 0.181
107 | CGCGGTCA | -0.0274
108 | ACTTACAG | 0.017
109 | AGTACGTG | -0.0755
110 | ATCAACGC | 0.102
111 | GGTGCCCA | -0.208
112 | GCCGCAAC | 0.00606
113 | ATACAGAG | -0.0144
114 | CTTGCAAC | 0.102
115 | GCTGACAA | 0.0561
116 | AAAATCCC | 0.0853
117 | ACTTGTGA | 0.0541
118 | AAGGTATG | 0.1
119 | ATTCGAGA | 0.0426
120 | AGAAAGCA | 0.232
121 | TGAAAACA | 0.0878
122 | AACACAAG | 0.0649
123 | CTCCCGCA | -0.0925
124 | GACATCAA | 0.111
125 | GGTAGTAC | -0.0701

Row | Sequence | PBM E-score
126 | ACCCACCC | -0.0138
127 | AGCTAGCC | -0.0749
128 | CCTCAACC | -0.136
129 | AAGTGGGA | 0.217
130 | CTCTCGGC | -0.0816
131 | GCCCGAAC | -0.0372
132 | ACTCCGTC | 0.0132
133 | AGTCCCTC | -0.316
134 | GGAAGGAA | -0.0948
135 | CACTTCAG | -0.0216
136 | ACCGTACT | 0.0135
137 | AATCCTCT | -0.127
138 | ACACTTAT | 0.087
139 | CTGACCCC | -0.391
140 | ACCGTTGA | -0.076
141 | AACACAGC | 0.204
142 | CGGCTTGC | -0.0135
143 | ATCTATAC | 0.0727
144 | CCACTCCC | -0.266
145 | CTCAACAC | 0.0584
146 | CAGGCGGC | -0.314
147 | CATATCGA | 0.0343
148 | GGTTGGGA | -0.125
149 | AGGAATAG | 0.0701
150 | ACTCACAG | 0.037

Row | Sequence | PBM E-score
151 | CTCCGATC | -0.0909
152 | CTCGGCCC | -0.249
153 | TGCCTGAA | -0.117
154 | AATCTCCG | 0.0189
155 | GCTGGAAA | 0.033
156 | GAGGCATA | -0.00096
157 | CATTTCAA | 0.265
158 | AGCATTAC | 0.0534
159 | AGTGCTTC | -0.0103
160 | GGGATGAA | -0.103
161 | AAAACTTC | 0.00687
162 | GAAGGTGA | 0.024
163 | ACTACTGA | -0.143
164 | ATCGCCTC | 0.139
165 | ATAAACCA | 0.0561
166 | AAAGTATC | 0.17
167 | ACTGCCGG | 0.0264
168 | ATGGACGC | 0.0748
169 | AGACGTAG | -0.0624
170 | AGTAACAT | 0.193
171 | AGCATGAT | 0.0213
172 | GGGATCCC | -0.129

37 neighbouring entries from above:
Row | Sequence | PBM E-score
20 | CAGTCCGG | -0.284
21 | ATTGCTCC | -0.0573
22 | CCTGACCG | -0.211
23 | CGTTATCC | 0.0546
24 | AACAGACC | -0.00049
25 | CAACTCTG | -0.0809
26 | CTCGGATC | -0.0202
27 | AAAGATTT | 0.0823
28 | CATTCGCC | -0.146
29 | AGGCTGTG | -0.00176
30 | ACCTAGCC | -0.112
31 | ATGCCATC | 0.0232
32 | AACCCGGA | -0.243
33 | CCGGTGCC | -0.337
34 | GCATATAC | 0.0525
35 | ACGCGGTA | 0.00829
36 | GTTCAGTA | 0.0681
37 | AGAGTCAC | -0.069
38 | ACTAGTAA | 0.115
39 | CACTTGGA | 0.0141
40 | CAGGTAGG | -0.124
41 | GAACAGCC | -0.155
42 | ACATTCGG | 0.0226
43 | AGATACTA | -0.0778
44 | AGGCCCTA | -0.174
45 | GAGCAAAA | -0.0244
46 | ATCCAGGA | 0.0537
47 | CACTACGC | -0.216
48 | TGACTACA | -0.0249
49 | AACCATAC | 0.0832
50 | CAACTGCG | -0.123
51 | CTCCCTCC | -0.258
52 | TCTAGGAA | -0.0119
53 | GAGAAAGA | 0.0339
54 | GACTGAAA | 0.0541
55 | AGCCATCA | 0.0981
56 | AATATTAT | 0.333
